Data as given in patent publication US7775469B2, “Purposeful movement of human migratory cells away from an agent source” (The General Hospital Corporation, priority 1999, dated 2010).
For some of these results: At least one compound was matched to its structure with a doubt left. Some results were stated once for a whole list of compounds, not compound by compound.

What was measured:
Jurkat T-cells = assay: Transwell transmigration of Jurkat T-cells to HepG2CM fractions, with inhibitors; format: cell-based, human; conditions: Jurkat cells pretreated with inhibitor
[1] = system: T-cell subpopulations moving toward or away from SDF-1α; assay: Inhibitor pretreatment of T-cells in SDF-1α transwell transmigration assay; format: cell-based, human; conditions: cells pretreated with inhibitor
Method: Three chemotaxis assays were used in this study. First, quantitative chemotaxis transmigration assays were performed using a transwell system (Corning Inc., NY) (6.5 mm diameter, 5 μm pore size, polycarbonate membrane) as previously described^13. Purified T-cell and thymocyte subpopulations (5×10^4 cells) were added to the upper chamber of each well in a total volume of 150 μl of IMDM alone. […] Cells were pretreated with pertussis toxin (PTX) 100 ng/ml for 1 hour, genistein (1 μg/ml for 20 minutes), herbimycin (1 μM for 20 minutes) or wortmannin (1 μM for 20 minutes) (Sigma Chemical Company, St Louis, Mo.) in a tissue culture incubator at 37° C. and 5% CO2 prior to their addition to the upper chambers of the transwells in selected experiments.
Transwells prepared in this way were incubated for 3 hours at 37° C., 5% CO2 incubator. Cells were harvested from the lower chamber after 3 hours and cell counts, immunophenotype and CXCR-4 chemokine receptor expression determined.
Cells were pretreated with anti-CXCR-4 (Pharmingen, San Diego, Calif.) at 20 μg/ml for 30 minutes at room temperature, pertussis toxin (PTX) (100 ng/ml for 1 hour at 37° C.), genistein (1 μg/ml for 20 minutes at 37° C.), herbimycin ([…] for 20 minutes 37° C.), wortmannin (1 μM for 20 minutes at 37° C.), 8-Br-cAMP (100 μM for 15 minutes at room temperature) or 8-Br-cGMP (100 μM for 15 minutes at room temperature) (Sigma Chemical Company, St Louis, Mo.) prior to their addition to the upper chambers of the transwells in selected experiments. Transwells prepared in this way were incubated for 3 hours at 37° C./5% C02 incubator. Cells were harvested from the lower chamber after 3 hours and cell counts performed using a hemocytometer.

| SMILES | fugetaxis induced by Fraction 18, level after inhibitor (Jurkat T-cells) | effect on chemokinesis induced by SDF-1α [1] | effect on chemotaxis to SDF-1α ([1]; peak chemotaxis at 100 ng/ml SDF-1α) | effect on fugetaxis from SDF-1α ([1]; peak fugetaxis at 1 or 10 μg/ml SDF-1α) |
| --- | --- | --- | --- | --- |
| O=c1c(-c2ccc(O)cc2)coc2cc(O)cc(O)c12 [genistein] | 40-60 % of the control level |  |  |  |
| COC[C@H]1OC(=O)c2coc3c2[C@@]1(C)C1=C(C3=O)[C@@H]2CCC(=O)[C@@]2(C)C[C@H]1OC(C)=O [wortmannin] |  | comparably inhibited | comparably inhibited | comparably inhibited |
